Measurements taken from PubChem BioAssay AID1671190 (National Center for Advancing Translational Sciences (NCATS), 2021).
Among all 580,000 compounds or so, about 6,100 (1.1%) were called active. This list was built around the results that the source calls inconclusive (neither active nor inactive); the mix of calls is not that of the screen. Calls follow the shape of the dose curve; as a rule, active = well fitted inhibition curve with a large enough effect; inconclusive = small, poorly fitted or top-dose-only effect, or another doubt; inactive = no such curve, though single readings can be large or run the other way. Where the call is inconclusive, the potency comes from a doubtful curve fit.

The chains behind the UniProt entries cited, without tags or fusion partners. Where a name states a change or a piece, a line headed by the entry shows the natural chain unless it says otherwise.
UniProt P18054: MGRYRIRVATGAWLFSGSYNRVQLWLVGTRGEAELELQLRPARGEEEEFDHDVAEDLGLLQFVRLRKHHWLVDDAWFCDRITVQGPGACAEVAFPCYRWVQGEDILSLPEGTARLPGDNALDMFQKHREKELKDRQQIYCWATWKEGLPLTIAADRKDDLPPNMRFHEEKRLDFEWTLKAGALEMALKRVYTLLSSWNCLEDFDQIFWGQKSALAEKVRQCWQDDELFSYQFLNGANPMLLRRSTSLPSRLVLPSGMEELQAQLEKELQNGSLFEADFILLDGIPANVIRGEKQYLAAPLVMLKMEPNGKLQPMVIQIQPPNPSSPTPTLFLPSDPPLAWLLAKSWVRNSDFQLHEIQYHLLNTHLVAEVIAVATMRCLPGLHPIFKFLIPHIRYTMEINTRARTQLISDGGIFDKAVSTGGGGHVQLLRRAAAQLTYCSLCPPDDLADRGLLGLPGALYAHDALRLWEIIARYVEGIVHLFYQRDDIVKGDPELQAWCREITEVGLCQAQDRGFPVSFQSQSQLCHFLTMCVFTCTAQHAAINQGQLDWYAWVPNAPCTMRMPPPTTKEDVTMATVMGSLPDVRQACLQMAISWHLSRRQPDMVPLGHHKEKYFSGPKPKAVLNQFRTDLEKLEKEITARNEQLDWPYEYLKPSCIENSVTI

These compounds were tested against Polyunsaturated fatty acid lipoxygenase ALOX12 (Homo sapiens) (UniProt P18054) (assay: Primary qHTS assay for inhibitors of human arachidonate 12S-lipoxygenase (ALOX12): Round 2). Conditions: purified 12hLO, xylenol orange hydroperoxide absorbance; series mostly up to 108 µM.
Summary of the method: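 Purified human 12hLO at 150 nM in 25 mM Hepes, 0.01% Triton X-100, pH 7.0, preincubated 15 min at room temperature with compound. Reaction started with 40 uM arachidonic acid, 30 min at room temperature. Hydroperoxide measured by Fe-xylenol orange, 573/405 nm absorbance ratio.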
Potency is read from the fitted curve at half-maximal effect.

Row | Compound | Potency
1 | O=S(=O)(Cc1cc(NCc2ccccc2)nc(-c2ccncc2)n1)c1ccccc1 | inconclusive: 44.7 µM [inhibitor, partial curve, poor fit]
2 | O=C(Cc1cccc(Cl)c1)N1CCc2nc(-c3ccc(Cl)cc3)nc(-c3ccccc3)c2C1 | inconclusive: 31.6 µM [inhibitor, full curve, poor fit]
3 | COc1ccc(-c2nc(SC(C)C(=O)c3c(N)n(C)c(=O)n(C)c3=O)n[nH]2)cc1 (stereo not given) | inconclusive: 50.1 µM [inhibitor, single point]
4 | O=S(=O)(c1cccc(NC(=S)NCc2ccco2)c1)N1CCOCC1 | inactive
5 | CCOC(=O)C1CCCN(Cc2cccc(Oc3ccccc3)c2)C1 (stereo not given) | inconclusive: 1.26 µM [inhibitor, full curve, poor fit]
6 | O=C1/C(=C\c2ccc(Br)o2)Cc2ccccc21 | inconclusive: 31.6 µM [inhibitor, partial curve, poor fit]
7 | CCc1cc(C(=O)Nc2cc(S(=O)(=O)N3CCOCC3)ccc2N2CCN(CC)CC2)sc1C | inactive
8 | O=C(c1ccco1)N1CCN(CCOCCOc2cccc3ccccc23)CC1 | inconclusive: 56.2 µM [inhibitor, partial curve, poor fit]
9 | COc1ccc2c(c1)CC=C1C2CCC2(C)C(=O)C(=NO)CC12 (stereo not given) | inconclusive: 44.7 µM [inhibitor, partial curve, poor fit]
10 | CN(C)CCCN(C(=O)c1ccc(C(=O)c2ccccc2)cc1)c1nc2ccc(F)cc2s1 | inconclusive: 89.1 µM [inhibitor, partial curve, poor fit]
11 | Cc1ccc(F)c(NC(=O)CCNC(=O)c2cccs2)c1 | inactive
12 | NC(=S)NNC(N)=S | inconclusive: 35.5 µM [inhibitor, single point]
13 | N#CCCSc1ccccc1NC(=O)c1cc(=O)c2ccccc2o1 | inconclusive: 70.8 µM [inhibitor, partial curve, poor fit]
14 | COc1ccc(CCn2c(=N)c(S(=O)(=O)c3ccc(C)cc3)cc3c(=O)n4ccccc4nc32)cc1 | inactive
15 | N#Cc1cccc(-c2ccc3ncnc(NC4CCNCC4)c3c2)c1 | inconclusive: 3.98 µM [inhibitor, full curve, poor fit]
16 | CCOC(=O)/C(C#N)=C/c1ccsc1C | inconclusive: 141 µM [inhibitor, partial curve, poor fit]
17 | Cc1cccc(C)c1OCCN1CCOCC1 | inconclusive: 0.501 µM [inhibitor, full curve, poor fit]
18 | COc1cc2ncnc(Nc3cc(Br)c(O)c(Br)c3)c2cc1OC | inconclusive: 8.63 µM [inhibitor, full curve, poor fit]
19 | N#Cc1nc(-c2ccc(OCc3ccccc3)cc2)oc1NCCN1CCOCC1 | inactive
20 | CCN(CC)C(=O)CSc1nc2c(sc(=S)n2-c2ccccc2)c(=O)n1-c1ccccc1OC | inactive
21 | Cc1cc(C)c(S(=O)(=O)N2CCN(C(=O)c3ccc(-n4cncn4)c([N+](=O)[O-])c3)CC2)c(C)c1 | inactive
22 | Cc1nc2sccn2c1-c1csc(NCc2ccccc2)n1 | inconclusive: 56.2 µM [inhibitor, partial curve, poor fit]

Row | Compound | Potency
23 | C[C@@H]1C(=O)O[C@H]2[C@H]1CC[C@@]1(C)Cc3sc(NC(=O)CS(=O)(=O)c4ccccc4)nc3[C@@H](C)[C@H]21 | inconclusive: 35.5 µM [inhibitor, partial curve, poor fit]
24 | CCn1c(COc2ccc(Cl)cc2)nnc1SCc1ccc(C#N)cc1 | inactive
25 | CC(C)CCN1CCCC2(C1)C(=NC1CCCC1)NC(=O)N2c1cc(F)cc(F)c1 (stereo not given) | inactive
26 | Cc1ccc2nc(SCC(=O)NCc3ccc(F)cc3)[nH]c2c1 | inactive
27 | CCCOc1cccc(C(=O)NC(=S)Nc2ccccc2)c1 | active: 15.8 µM
28 | COc1ccccc1-c1nc(S(=O)(=O)c2ccc3c(c2)OCCO3)c(N2CCN(C)CC2)o1 | inactive
29 | COc1ccccc1Nc1c2c(nc3ccc(NC(=O)/C=C/c4cc(OC)c(OC)c(OC)c4)cc13)CCCC2 | inconclusive: 112 µM [inhibitor, single point]
30 | CC(Sc1nc2ccccc2c(=O)n1C)C(=O)N(C)C1CCCCC1 (stereo not given) | inconclusive: 100 µM [inhibitor, single point]
31 | CC(C)(C)C1CCc2c(sc(NC(=O)CSc3ncn[nH]3)c2C#N)C1 (stereo not given) | inconclusive: 50.1 µM [inhibitor, partial curve, poor fit]
32 | O=C(N[C@H]1CCOC[C@H]1C1CCOCC1)c1ccccc1-c1ncc[nH]1 | inconclusive: 15.8 µM [inhibitor, partial curve]
33 | CC(=N\NC(=O)c1cc(Br)ccc1O)/C(=N/O)C(=O)Nc1ccccc1 | inconclusive: 35.5 µM [inhibitor, partial curve]
34 | Cc1ccc(-c2[nH]nc(N)c2N=Nc2cccc(Cl)c2C)cc1 | inactive
35 | Cc1cc(C)cc(-n2ncc3c2CCCC3NC(=O)CN2CCCC2=O)c1 (stereo not given) | inactive
36 | O=C(Cc1cn2ccsc2n1)OCc1ccccc1 | inconclusive: 17.8 µM [inhibitor, partial curve, poor fit]
37 | O=C(CNC(=O)c1cc(-c2cccs2)nc2ccccc12)NC1CC1 | inconclusive: 35.5 µM [inhibitor, single point]
38 | CC(=O)Nc1ccc(NC(=O)CCCn2cnc3ccccc3c2=O)cc1 | inconclusive: 79.4 µM [inhibitor, partial curve, poor fit]
39 | CCNC(=S)NC1CC2CCCC(C1)N2Cc1ccc(C)cc1 (stereo not given) | inconclusive: 50.1 µM [inhibitor, single point]
40 | Cc1cc(C)cc(-n2c(C)cc(/C=C3\C(=N)N4N=C(CC(C)C)SC4=NC3=O)c2C)c1 | inactive
41 | O=C(O)/C=C/c1cc(Br)c(OCc2ccccc2Cl)c(Br)c1 | inconclusive: 5.62 µM [inhibitor, full curve, poor fit]
42 | CCOc1ccc(N=C2NC(=O)S/C2=C\c2ccc(Cl)cc2)cc1 | inconclusive: 112 µM [inhibitor, single point]
43 | O=S(=O)(c1ccc2nc(N3CCN(c4ccc(F)cc4)CC3)ccc2c1)N1CCCC1 | inconclusive: 44.7 µM [inhibitor, single point]
44 | CC(C)c1ccc(NC(=O)C2Cc3ccccc3N2C(=O)c2ccccc2)cc1 (stereo not given) | inconclusive: 79.4 µM [inhibitor, partial curve, poor fit]

Ordered by molecular weight (ascending): part of the list above
Row | Compound | Potency
36 | O=C(Cc1cn2ccsc2n1)OCc1ccccc1 | inconclusive: 17.8 µM [inhibitor, partial curve, poor fit]
38 | CC(=O)Nc1ccc(NC(=O)CCCn2cnc3ccccc3c2=O)cc1 | inconclusive: 79.4 µM [inhibitor, partial curve, poor fit]
35 | Cc1cc(C)cc(-n2ncc3c2CCCC3NC(=O)CN2CCCC2=O)c1 (stereo not given) | inactive

(next part)

Row | Compound | Potency
45 | O=C1CC(C(F)(F)F)=NN1 | inactive
46 | O=C(O)c1csc(-c2cccs2)n1 | inconclusive: 31.6 µM [inhibitor, partial curve, poor fit]
47 | CCOC(=O)c1ccc(NC(=S)N2CCSC2c2ccc(OC)cc2)cc1 (stereo not given) | inconclusive: 44.7 µM [inhibitor, partial curve]
48 | COc1cc(-c2ccccc2)[nH]c(=S)n1 | inconclusive: 70.8 µM [inhibitor, partial curve, poor fit]
49 | Cc1ccc2cc(/C=N/Nc3ccc(C(=O)O)cc3)c(Cl)nc2c1 | inconclusive: 89.1 µM [inhibitor, partial curve, poor fit]
50 | Cc1cc(C(=O)Nc2cccc3cccnc23)ccc1[N+](=O)[O-] | inactive
51 | Cc1ccc(S(=O)(=O)C2(C(=O)Nc3ccc(C(C)C)cc3)CC2)cc1 | inconclusive: 126 µM [inhibitor, partial curve, poor fit]
52 | Cc1ccc(O)c(-c2cc(-c3ccccc3C)[nH]n2)c1 | inconclusive: 25.1 µM [inhibitor, partial curve, poor fit]
53 | O=C1c2ccc([N+](=O)[O-])cc2NC(c2ccco2)N1/N=C/c1ccco1 (stereo not given) | inconclusive: 39.8 µM [inhibitor, partial curve]
54 | O=C1CC(=O)N(Cc2ccco2)C(=O)N1 | inconclusive: 25.1 µM [inhibitor, partial curve, poor fit]
55 | Cc1nnc(Sc2cc(NCCO)c([N+](=O)[O-])c3nonc23)s1 | inconclusive: 50.1 µM [inhibitor, partial curve, poor fit]
56 | CC1=C[C@@H](CNCCN2CCNC2=O)[C@H](C(C)C)C[C@H]1Cc1nnc(-c2cccnc2)o1 | inactive
57 | COc1ccccc1N1CCN(c2nc(CNC(=O)C3CC34CCCC4)nc3ccccc23)CC1 (stereo not given) | inconclusive: 126 µM [inhibitor, single point]
58 | COc1ccc(CN2C(=O)C(CC(=O)NCCCCc3ccccc3)CC(C(=O)N(C(C)C)C(C)C)=C2C)cc1 (stereo not given) | inconclusive: 25.1 µM [inhibitor, single point]
59 | CN1CCN(S(=O)(=O)c2ccc(NC(=O)Nc3cccc(Cl)c3)cc2)CC1 | inconclusive: 44.7 µM [inhibitor, single point]
60 | Cc1ccc(-c2cnc(CCC(=O)NCc3ccccc3)o2)cc1C | inconclusive: 0.251 µM [inhibitor, full curve, poor fit]
61 | CC(=O)N1CCN(c2cc(N3CCc4ccccc4C3)c(F)cc2[N+](=O)[O-])CC1 | inactive
62 | N#C/C(=C/c1ccco1)C(=O)NC1CC1 | inconclusive: 0.199 µM [inhibitor, full curve, poor fit]
63 | Cc1ccc(O)c(-c2ccnc3cc(-c4ccccc4)nn23)c1 | inconclusive: 0.355 µM [inhibitor, full curve, poor fit]
64 | O=C(COc1ccc([N+](=O)[O-])cc1)NNC(=S)NC(=O)c1ccc(Br)cc1 | active: 39.8 µM
65 | CCOCCCn1c(=S)[nH]c2cc(C(=O)NCCN(CC)CC)ccc2c1=O | inconclusive: 11.2 µM [inhibitor, partial curve, poor fit]
